In US20110301194A1, “Method for Determining Treatment Efficacy” (ArQule, Inc., priority 2010, published 2011):

System: serum HGF
Assay: Serum HGF in hepatocellular carcinoma patients given Agent A
Type: in vivo, human
Settings: patients with hepatocellular carcinoma, oral 360 mg BID, 28-day cycles; after administration; higher than in previous treated patient populations
Description: Patients with hepatocellular carcinoma (Table 1) were administered with (−)-trans-3-(5,6-dihydro-4H-pyrrolo[3,2,1-ij]quinolin-1-yl)-4-(1H-indol-3-yl)pyrrolidine-2,5-dione at an oral dose of 360 mg of (−)-trans-3-(5,6-dihydro-4H-pyrrolo[3,2,1-ij]quinolin-1-yl)-4-(1H-indol-3-yl)pyrrolidine-2,5-dione (Agent A) twice daily (BID) for several cycles of 28-day period. Serum HGF from the patients were collected and analysed. HGF serum levels (median 2400 ng/mL) were higher after the administration of Agent A than in previous treated patient populations. HGF levels were correlated to the efficacy of Agent A and neutropenia (FIGS. 3a and 3b).

O=C1NC(=O)[C@@H](c2cn3c4c(cccc24)CCC3)[C@@H]1c1c[nH]c2ccccc12 [Agent A, (−)-trans-3-(5,6-dihydro-4H-pyrrolo[3,2,1-ij]quinolin-1-yl)-4-(1H-indol-3-yl)pyrrolidine-2,5-dione]
HGF serum levels (median): 2400 ng/mL
